Some entries share one result that the patent states for a list of compounds. Some compounds share one range, which may span the group rather than tell each member.
System: Candida spp.
Test: MIC studies, statements pooled over several isolates
Type: cell-based, Candida albicans, Candida glabrata
Details: azole-resistant fungi TW17 and C. glabrata
Method: The antifungal activity of the pyridinohydrazide and hydrazomethylpyridine derivatives described in the s were evaluated in vitro using Candida albicans (ATCC Accession No. 10231) and Candida glabrata (ATCC Accession No. 48435). In addition, the compounds were evaluated for activity against two previously-described clinical isolates of C. albicans known to have developed azole-resistance. These isolates were obtained over a two year period from a single AIDS patient and the development of the azole-resistance mechanisms have been extensively characterized (White T C. Antimicrob. Agents Chemother. (1997) 41: 1482-1487). MIC assays were performed on the clinical isolates 1 and 17 (annotated TW1 and TW17, respectively), where isolate 1 was used as an azole-susceptible control and isolate 17 was considered azole-resistant. All assays were done in accordance with NCCLS reference documents (Clinical Laboratory and Standards Institute. Reference method for Broth Dilution Antifungal Susceptibility Testing of Yeasts: Approved Standard. M27-A3 2010; 28). The results of these screenings are summarized in Tables 1-9 (Examples 20-27) as the minimum concentrations that inhibited more than 80% of fungal growth (MIC80) as compared to positive controls containing 1% DMSO. Assays were performed in HEPES-buffered RPMI-1640 media. All MIC screens used a visual scoring method as opposed to spectroscopic analysis, due to the altered absorbance spectra of many of the compounds.

Compound | concentration range inhibiting fungal growth [µM]
Cc1ccc(O)c(/C=N/NC(=O)c2ccccn2)c1 [AR2, (E)-N′-(2-Hydroxy-5-methylbenzylidene)picolinohydrazide] | 3 to 30
O=C(N/N=C/c1cc([N+](=O)[O-])ccc1O)c1ccccn1 [AR6, (E)-N′-(2-hydroxy-5-nitrobenzylidene)picolinohydrazide] | 3 to 30
O=C(N/N=C/c1cc(Br)ccc1O)c1ccccn1 [AR5, (E)-N′-(5-bromo-2-hydroxybenzylidene)picolinohydrazide] | 3 to 30
O=C(N/N=C/c1cc(Cl)ccc1O)c1ccccn1 [AR4, (E)-N′-(5-Chloro-2-hydroxybenzylidene)picolinohydrazide] | 3 to 30

Reference: patent US20180072675A1, “ANTIMICROBIAL PYRIDINOHYDRAZIDE AND HYDRAZOMETHYLPYRIDINE-BASED AGENTS” (Board of Supervisors of Louisiana State University and …, priority 2015, published 2018)
